PubChem BioAssay AID1259425 – University of Nebraska Medical Center, 2018
Assay: 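Compare each knockdown with KSR1 silencing using changes in marker transcripts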 (primary screen). Cells: HCT116 human colon cancer cells. Reagents: siRNA pool against human genes, 50 nM siRNA. Read-out: 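mRNA of six signature genes measured together by branched-DNA assay after 50 nM siRNA pool, blank removed, divided by geometric mean of two housekeeping genes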. Scale: BNIP3L mRNA: higher = more BNIP3L transcript after knockdown; NDRG1 mRNA: higher = more NDRG1 transcript after knockdown; BNIP3 mRNA: higher = more BNIP3 transcript after knockdown; ALDOC mRNA: higher = more ALDOC transcript after knockdown; ACSL5 mRNA: higher = more ACSL5 transcript after knockdown.
In all, the deposit lists about 14,000 reagents; this is a part drawn at random. Not stated in the record: the time to read-out.

no.	Target gene	BNIP3L mRNA, set 1	NDRG1 mRNA, set 1	BNIP3 mRNA, set 1	ALDOC mRNA, set 1	ACSL5 mRNA, set 1
1	BRD2 (GeneID 6046)	0.159	0.242	0.28	0.00703	0.0989
2	LARS2 (GeneID 23395)	0.116	0.198	0.337	0.0834	0.117
3	PARP12 (GeneID 64761)	0.138	0.0746	0.267	0.0292	0.157
4	PITPNA (GeneID 5306)	0.113	0.183	0.266	0.025	0.164
5	CCNO (GeneID 10309)	0.107	0.214	0.251	0.0185	0.111
6	CTC1 (GeneID 80169)	0.167	0.271	0.306	0.0449	0.209
7	SP140 (GeneID 11262)	0.122	0.599	0.331	0.0182	0.12
8	UBAP1 (GeneID 51271)	0.0999	0.448	0.404	0.0225	0.232
9	CDC26 (GeneID 246184)	0.141	0.123	0.363	0.0273	0.264
10	LRFN2 (GeneID 57497)	0.175	0.261	0.266	0.0698	0.391
11	TGDS (GeneID 23483)	0.0921	0.254	0.408	0.0231	0.152
12	KLRA1P (GeneID 10748)	0.0962	0.0603	0.268	0.0259	0.0844
13	DDX1 (GeneID 1653)	0.0769	0.208	0.241	0.0116	0.35
14	UBE2B (GeneID 7320)	0.0781	0.0985	0.272	0.0178	0.13
15	PLEKHJ1 (GeneID 55111)	0.11	0.152	0.281	0.0202	0.292
16	MATN2 (GeneID 4147)	0.0779	0.306	0.304	0.0434	0.266
17	PSMB9 (GeneID 5698)	0.0652	0.369	0.276	0.0283	0.104
18	APP (GeneID 351)	0.1	0.359	0.283	0.0163	0.151
19	CCR2 (GeneID 729230)	0.118	0.237	0.307	0.032	0.101
20	PSMB7 (GeneID 5695)	0.733	1.77	0.573	0.104	0.353
21	CHTF18 (GeneID 63922)	0.117	0.662	0.25	0.0528	0.304

Targets above whose gene name begins with C or c:
Target gene	BNIP3L mRNA, set 1	NDRG1 mRNA, set 1	BNIP3 mRNA, set 1	ALDOC mRNA, set 1	ACSL5 mRNA, set 1
CCNO (GeneID 10309)	0.107	0.214	0.251	0.0185	0.111
CTC1 (GeneID 80169)	0.167	0.271	0.306	0.0449	0.209
CDC26 (GeneID 246184)	0.141	0.123	0.363	0.0273	0.264
CCR2 (GeneID 729230)	0.118	0.237	0.307	0.032	0.101
CHTF18 (GeneID 63922)	0.117	0.662	0.25	0.0528	0.304

Further reagents follow.
no.	Target gene	BNIP3L mRNA, set 1	NDRG1 mRNA, set 1	BNIP3 mRNA, set 1	ALDOC mRNA, set 1	ACSL5 mRNA, set 1
22	PDE6G (GeneID 5148)	0.0996	0.262	0.323	0.0201	0.125
23	AFM (GeneID 173)	0.0871	0.209	0.235	0.0183	0.126
24	TGFB1 (GeneID 7040)	0.0907	0.299	0.307	0.0297	0.134
25	ARHGAP24 (GeneID 83478)	0.157	0.238	0.314	0.14	0.28
26	CAPG (GeneID 822)	0.149	0.0826	0.519	0.034	0.156
27	ATP6V1E1 (GeneID 529)	0.226	0.222	0.897	0.0653	0.0582
28	B3GALT2 (GeneID 8707)	0.206	0.279	0.369	0.265	0.136
29	MYO18A (GeneID 399687)	0.213	0.181	0.273	0.0343	0.204
30	TM9SF2 (GeneID 9375)	0.156	0.106	0.264	0.0338	0.0571
31	LPCAT1 (GeneID 79888)	0.216	0.228	0.376	0.0536	0.177
32	CHST15 (GeneID 51363)	0.148	0.183	0.25	0.0229	0.142
33	OGDH (GeneID 4967)	0.0609	0.273	0.209	0.00648	0.26
34	RPS6KA5 (GeneID 9252)	0.116	0.168	0.355	0.0222	0.446
